Results taken from patent US10023555B2, “NSAIDs derivatives and uses thereof” (Research Foundation of The City University of New York, priority 2013, dated 2018).

Assays:
Assay type in all cases: cell-based
[1] = system: HCT-15 human colon adenocarcinoma cells; assay: MTT cell growth inhibition, HCT 15; settings: 24 h, Colon HCT 15, mean ± SEM of three determinations
[2] = system: SW-480 human colon adenocarcinoma cells; assay: MTT cell growth inhibition, SW480; settings: 24 h, mean ± SEM of three determinations
[3] = system: HT-29 human colon adenocarcinoma cells; assay: MTT cell growth inhibition, HT-29; settings: 24 h, Colon HT-29, mean ± SEM of three determinations

With COc1ccc2cc([C@H](C)C(=O)O)ccc2c1 [NAP, naproxen, reference compound] the IC50 [1] was 2950 µM, the IC50 [2] was 3110 µM and the IC50 [3] was 2800 µM.
